Reference: patent US20060252677A1
These are yes or no findings as the source states them, for the method shown. Some binding calls cover weakened binding; strength is not graded here. Where a sequence is shown, tags or fusion partners need not be part of it.

Protein sequences, listed by entry. Tags and fused reporters are not part of them. Residues count along the entry.
UniProt Q13224, residues 27-1484: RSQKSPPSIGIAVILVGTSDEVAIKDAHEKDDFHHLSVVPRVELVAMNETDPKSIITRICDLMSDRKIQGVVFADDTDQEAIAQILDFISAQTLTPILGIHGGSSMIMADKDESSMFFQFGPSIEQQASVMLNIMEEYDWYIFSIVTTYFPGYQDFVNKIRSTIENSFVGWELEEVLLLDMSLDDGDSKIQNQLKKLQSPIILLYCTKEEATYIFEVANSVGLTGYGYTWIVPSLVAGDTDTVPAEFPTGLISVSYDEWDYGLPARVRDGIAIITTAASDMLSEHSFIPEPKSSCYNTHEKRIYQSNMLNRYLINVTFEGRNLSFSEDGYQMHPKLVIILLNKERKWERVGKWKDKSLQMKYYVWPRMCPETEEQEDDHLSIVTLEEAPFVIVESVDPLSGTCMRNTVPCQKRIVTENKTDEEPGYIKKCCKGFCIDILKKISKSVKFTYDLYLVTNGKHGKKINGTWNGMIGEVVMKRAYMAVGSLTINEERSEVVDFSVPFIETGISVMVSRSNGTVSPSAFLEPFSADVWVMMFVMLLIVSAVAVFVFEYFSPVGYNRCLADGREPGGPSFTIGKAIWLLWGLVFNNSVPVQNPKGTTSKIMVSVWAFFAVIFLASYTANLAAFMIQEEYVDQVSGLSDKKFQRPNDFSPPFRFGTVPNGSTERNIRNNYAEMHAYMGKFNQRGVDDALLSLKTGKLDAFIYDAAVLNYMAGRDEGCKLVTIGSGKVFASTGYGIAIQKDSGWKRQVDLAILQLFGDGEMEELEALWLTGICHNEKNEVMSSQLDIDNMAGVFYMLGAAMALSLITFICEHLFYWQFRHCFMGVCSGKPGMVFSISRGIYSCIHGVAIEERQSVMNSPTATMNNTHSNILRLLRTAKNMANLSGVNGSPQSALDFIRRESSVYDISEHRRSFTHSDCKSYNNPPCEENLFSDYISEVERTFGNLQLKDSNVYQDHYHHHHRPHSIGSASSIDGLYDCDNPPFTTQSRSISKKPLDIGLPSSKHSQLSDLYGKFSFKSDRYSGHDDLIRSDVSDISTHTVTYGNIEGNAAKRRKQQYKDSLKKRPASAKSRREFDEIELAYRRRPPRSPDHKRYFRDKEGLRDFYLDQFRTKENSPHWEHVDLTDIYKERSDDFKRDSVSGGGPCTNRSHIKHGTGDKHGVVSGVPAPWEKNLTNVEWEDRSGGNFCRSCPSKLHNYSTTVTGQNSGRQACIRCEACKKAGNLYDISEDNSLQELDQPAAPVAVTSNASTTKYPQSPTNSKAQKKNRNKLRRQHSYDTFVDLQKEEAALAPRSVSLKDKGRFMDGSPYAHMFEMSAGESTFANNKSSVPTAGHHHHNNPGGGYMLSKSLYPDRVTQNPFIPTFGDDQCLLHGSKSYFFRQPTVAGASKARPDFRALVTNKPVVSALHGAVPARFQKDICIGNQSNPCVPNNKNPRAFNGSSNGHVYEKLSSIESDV

Key:
[1] = molecular target: fusion protein of NMDA receptor/2B subunit with GST (human) (UniProt Q13224); assay: Overlay method, legend of FIG. 8
[2] = molecular target: fusion protein of NMDA receptor/2B subunit with GST (human) (UniProt Q13224); assay: Overlay method (far-Western): His-Protein-X extract on blotted GST-NMDA receptor/2B subunit, anti-His detection

B1: fusion protein of Protein-X (novel PSD, clone hj02537) with a 6x His-tag (protein, not shown: small tags and cut ends)
chain: MPALSTGSGSDTGLYELLAALPAQLQPHVDSQEDLTFLWDMFGEKSLHSLVKIHEKLHYYEKQSPVPILHGAAALADDLAEELQNKPLNSEIRELLKLLSKPNVKALLSVHDTVAQKNYDPVLPPMPEDIDDEEDSVKIIRLVKNREPLGATIKKDEQTGAIIVARIMRGGAADRSGLIHVGDELREVNGIPVEDKRPEEIIQILAQSQGAITFKIIPGSKEETPSKEGKMFIKALFDYNPNEDKAIPCKEAGLSFKKGDILQIMSQDDATWWQAKHEADANPRAGLIPSKHFQERRLALRRPEILVQPLKVSNRKSSGFRRSFRLSRKDKKTNKSMYECKKSDQYDTADVPTYEEVTPYRRQTNEKYRLVVLVGPVGVGLNELKRKLLISDTQHYGVTVPHTTRARRSQESDGVEYIFISKHLFETDVQNNKFIEYGEYKNNYYGTSIDSVRSVLAKNKVCLLDVQPHTVKHLRTLEFKPYVIFIKPPSIERLRETRKNAKIISSRDDQGAAKPFTEEDFQEMIKSAQIMESQYGHLFDKIIINDDLTVAFNELKTTFDKLETETHWVPVSWLHS
With B1 the binding [1] was “binds” and the binding [2] was “binds”.
